Measured values as given in US11938127B2, “Methods and compositions relating to steroid hormone receptor-dependent proliferative disorders” (Wayne State University, priority 2021, dated 2024).
For at least one compound, name, drawing or mass did not settle the structure.

Legend:
22Rv1 cells [1] = experiment: Cell viability (MTT) assay, monolayer growth of 22Rv1 cells; assay type: cell-based
Experimental: (§1) Cells from monolayer cultures were trypsinized and seeded in 96-well plates coated with poly(d-lysine) at a density of 4000 cells per well (for 22Rv1 cells and LNCaP cells) or 5000 cells per well (for VCaP cells). The media used were the same as the growth media described above for each cell line. The plates were incubated at 37° C. in 5% CO2. Twenty-four hours later, the cells were treated with the indicated compound or dimethylsulfoxide (vehicle). The culture medium was replaced with fresh media containing vehicle or the appropriate concentration of compound at the end of 48 hours during the time course of the assay. Cell viability was determined on Day 0 and at the various time points using the standard 3-(4,5-dimethylthiazol-2-yl)-2,5-diphenyltetrazolium bromide (MTT) assay. The assays ware conducted in replicates of six wells per condition and values plotted as percent of the Day 0 values.

22Rv1 cells [2] = experiment: Colony formation assay in 22Rv1 cells; assay type: cell-based; conditions: 22Rv1 CRPC cells; nanomolar dose range
Experimental: 22Rv1 cells were plated in triplicate at a density of 2000 cells/well in 6-well plates in 48-hour conditioned medium (phenol-red free RPMI1640 10% FBS, 1% penicillin/streptomycin, 1% L-glutamine) obtained from monolayer cultures of the same cells, as previously described. 48 h after plating, the cells were treated with various concentrations of the test compounds in the same media. The test compounds and media were replenished every 48 hours until colonies developed in the control untreated wells (in 10 days). The colonies were then stained with crystal violet and counted.
The ability of KCI837 to inhibit colony formation in castration and enzalutamide resistant prostate cancer cells was tested. 22Rv1 cells were seeded in triplicate six well plates in phenol red-free conditioned media. 48 hours later, treatment with KCI837 at the indicated doses was initiated. KCI837 was replenished every 48 hours. Seven days later, colonies were fixed and stained with crystal violet. Colony counts are plotted.

VCaP cells = experiment: Cell viability (MTT) assay, monolayer growth of VCaP cells; assay type: cell-based; conditions: dose range 2.5 uM-10 uM; dose-dependent
Experimental: as §1

LNCaP cells = experiment: Cell viability (MTT) assay, monolayer growth of LNCaP cells; assay type: cell-based; conditions: dose of 10 uM; compared with enzalutamide
DU145 PCa cells = experiment: Monolayer growth of AR-negative DU145 cells; assay type: cell-based
[3] = tested on: MDA-MB-231 breast cancer cells; experiment: Monolayer growth of AR-negative MDA-MB-231 cells; assay type: cell-based; conditions: AR-negative MDA-MB-231 breast cancer cells
A549 lung cancer cells = experiment: Monolayer growth of AR-negative A549 cells; assay type: cell-based
[4] = tested on: HeLa cervical cancer cells; experiment: Monolayer growth of AR-negative HeLa cells; assay type: cell-based
[5] = tested on: ELK1-dependent promoter activation by AR; experiment: Promoter inhibition assay, ELK1-dependent promoter activation by AR (Gal4-TATA-Luc, recombinant HeLa cells); assay type: cell-based; conditions: 6 hours, 10 nM DHT
[6] = tested on: ARE-dependent promoter activation by AR; experiment: Promoter inhibition assay, ARE-driven promoter activation by AR (ARE-TATA-Luc, recombinant HeLa cells); assay type: cell-based; conditions: 6 hours, 10 nM testosterone
[7] = tested on: ELK1-dependent versus ARE-driven target genes of AR; experiment: AR target gene expression assay in 22Rv1 cells (quantitative RT-PCR); assay type: cell-based; conditions: 72 hours, 10 uM KCI838
CWR22Rv1-AR-EK cells = experiment: MTT growth assay in CWR22Rv1-AR-EK cells; assay type: cell-based; conditions: three or four days
Experimental: This model cell line thus mimics aggressively growing advanced prostate cancer tumor cells that are insensitive to current treatments such as testosterone suppression and androgen antagonists that cannot affect AR-Vs. Since KCI838 disrupts interaction of ELK1 with wtAR as well as AR-Vs, the effect of KCI838 on the growth of CWR22Rv1-AR-EK cells was tested. For this test, the cells were seeded in phenol red-free growth media. 24 hours later, the cells were treated with KCI838, FIG. 12A, or enzalutamide, FIG. 12B, at the indicated concentrations. Cells were grown for three or four days with replenishment of the drug at 48 hours. Cell viability was measured using the MTT assay.

HPrEC cells = experiment: MTT growth assay in HPrEC cells; assay type: cell-based, human; conditions: dose-dependent

O=c1cc(-c2cccc(O)c2)n(CC(F)(F)F)c2cccc(O)c12 [KCI838]
onset of growth inhibition (22Rv1 cells [1]; 22Rv1 monolayers, compared among all the compounds): earliest onset of growth inhibition | time course of growth inhibition (22Rv1 cells [1]; enzalutamide-resistant 22Rv1 CRPC monolayers, 2.5 uM, 5 uM and 10 uM): virtually complete growth inhibition | effect on colony formation (22Rv1 cells [2]): inhibited colony formation | monolayer growth of VCaP cells (VCaP cells): inhibited monolayer growth | inhibition of monolayer growth in LNCaP cells (LNCaP cells): more effective growth inhibition than enzalutamide | effect on monolayer growth (DU145 PCa cells): did not significantly affect growth | effect on monolayer growth [3]: did not significantly affect growth | effect on monolayer growth (A549 lung cancer cells): did not significantly affect growth | effect on monolayer growth [4]: did not significantly affect growth | ELK1-dependent promoter activation by dihydrotestosterone (luciferase) [5]: inhibited by KCI838 in a dose-dependent manner | ARE-driven promoter activation (luciferase) [6]: unable to inhibit promoter activation | expression of AR target gene mRNAs [7]: selectively inhibited the expression of known ELK1-dependent endogenous target genes of AR | growth of CWR22Rv1-AR-EK cells (CWR22Rv1-AR-EK cells): potent inhibitor of growth | growth of HPrEC cells (HPrEC cells): inhibited the growth of HPrEC cells in a dose-dependent manner
